The test system of one series is HLA molecules of primary tumor and normal tissue samples (cancer entities). As to the kind of experiment: Identification and label-free LC-MS quantitation of HLA-presented tumor-associated peptides on tissue samples. Set-up: species or system human. The settings on record: FIGS. 1A-1J; HLA-A*24 positive normal (N=75) versus tumor samples (N=263), MS signal intensities.
Consider “SEQ ID NO.: 86 (SYLPTAERL; listed as Homo sapiens)”, for which the “over-presentation of the peptide in different cancer tissues” value is “over-presentation”.

As to “SEQ ID NO.: 74 (NYVLVPTMF; listed as Homo sapiens)”, the “over-presentation of the peptide in different cancer tissues” value is “over-presentation”.

Staying with this series, now noted: cancer entities on whose tumor tissue samples the HLA-presented peptide was found (LC-MS); abbreviations in the footnotes of Table 8a.
As for “364 (KQSQVVFVL; listed as Homo sapiens) [compound 364]”, the “Peptide Presentation on cancer entities” value was “NSCLCsquam, OC, PRCA”.

“129 (IYVSLAHVL; listed as Homo sapiens) [compound 129]”: the “Peptide Presentation on cancer entities” value is “GC, NSCLCother, NSCLCsquam, PRCA”.

“9 (TYINSLAIL; listed as Homo sapiens) [compound 9]”: the “Peptide Presentation on cancer entities” value is given as “NSCLCadeno, PRCA, RCC, UBC”.

On to “61 (RIFTARLYF; listed as Homo sapiens) [compound 61]”, for which the “Peptide Presentation on cancer entities” value is listed as “NHL”.

As to “166 (MMALWSLLHL; listed as Homo sapiens) [compound 166]”, the “Peptide Presentation on cancer entities” value was “NSCLCsquam”.

With “68 (VYKEDLPQL; listed as Homo sapiens) [compound 68]”, the “Peptide Presentation on cancer entities” value is “CLL, NSCLCsquam”.

Consider “33 (FYQPDLKYLSF; listed as Homo sapiens) [compound 33]”, for which the “Peptide Presentation on cancer entities” value is recorded as “NHL”.

On to “385 (GYFGNPQKF; listed as Homo sapiens) [compound 385]”, for which the “Peptide Presentation on cancer entities” value is “BRCA, CCC, CRC, GBC, GC, HCC, HNSCC, MEL, NSCLCadeno, NSCLCother, NSCLCsquam, OC, OSCAR, PACA, PRCA, RCC, SCLC, UBC, UEC”.

“291 (YTRLVLQF; listed as Homo sapiens) [compound 291]”: the “Peptide Presentation on cancer entities” value is given as “AML, BRCA, CCC, CLL, CRC, GBC, GBM, GC, HCC, HNSCC, MEL, NHL, NSCLCadeno, NSCLCother, NSCLCsquam, OC, OSCAR, PACA, PRCA, RCC, SCLC, UBC, UEC”.

Turning to “10 (QYPEFSIEL; listed as Homo sapiens) [compound 10]”, the “Peptide Presentation on cancer entities” value is on record as “PRCA”.

With “304 (YFGNPQKF; listed as Homo sapiens) [compound 304]”, the “Peptide Presentation on cancer entities” value was “GC, PACA”.

Consider “101 (VYAVSSDRF; listed as Homo sapiens) [compound 101]”, for which the “Peptide Presentation on cancer entities” value was “GBM”.

Take “36 (VYLASVAAF; listed as Homo sapiens) [compound 36]”: the “Peptide Presentation on cancer entities” value was “PRCA”.

Take “317 (DWIWRILFLV; listed as Homo sapiens) [compound 317]”: the “Peptide Presentation on cancer entities” value was “GBM”.

On to “151 (RRLWAYVTI; listed as Homo sapiens) [compound 151]”, for which the “Peptide Presentation on cancer entities” value is “MEL”.

For the substance “44 (FYHEDMPLW; listed as Homo sapiens) [compound 44]”, the “Peptide Presentation on cancer entities” value is given as “NHL”.

As to “362 (NYMDTDNLMF; listed as Homo sapiens) [compound 362]”, the “Peptide Presentation on cancer entities” value is “CCC, GBC, GC, HCC, OC, OSCAR, SCLC”.

Regarding “244 (TYIDTRTVFL; listed as Homo sapiens) [compound 244]”, the “Peptide Presentation on cancer entities” value is “HCC”.

For “278 (TYESVVTGFF; listed as Homo sapiens) [compound 278]”, the “Peptide Presentation on cancer entities” value is “SCLC”.

Take “119 (VWSCEGCKAF; listed as Homo sapiens) [compound 119]”: the “Peptide Presentation on cancer entities” value is reported as “UBC”.

Take “321 (VYTVGHNLI; listed as Homo sapiens) [compound 321]”: the “Peptide Presentation on cancer entities” value is “HCC”.

In the case of “123 (FFLQESPVF; listed as Homo sapiens) [compound 123]”, the “Peptide Presentation on cancer entities” value is “HCC”.

Regarding “122 (YFLRGRLYW; listed as Homo sapiens) [compound 122]”, the “Peptide Presentation on cancer entities” value is on record as “NSCLCsquam, OC”.

Turning to “38 (RYAHTLVTSVLF; listed as Homo sapiens) [compound 38]”, the “Peptide Presentation on cancer entities” value was “BRCA, MEL”.

With “108 (WFFQGAQYW; listed as Homo sapiens) [compound 108]”, the “Peptide Presentation on cancer entities” value is recorded as “HCC”.

Take “287 (LVQPQAVLF; listed as Homo sapiens) [compound 287]”: the “Peptide Presentation on cancer entities” value was “GBM, GC, NSCLCadeno, SCLC, UEC”.

As for “272 (IYFNHRCF; listed as Homo sapiens) [compound 272]”, the “Peptide Presentation on cancer entities” value is “NSCLCadeno”.

On to “193 (KYKPVALQCIA; listed as Homo sapiens) [compound 193]”, for which the “Peptide Presentation on cancer entities” value was “NSCLCadeno”.

Consider “109 (AQHSLTQLF; listed as Homo sapiens) [compound 109]”, for which the “Peptide Presentation on cancer entities” value is recorded as “GBM”.

Regarding “245 (VLPLHFLPF; listed as Homo sapiens) [compound 245]”, the “Peptide Presentation on cancer entities” value is “RCC”.

As to “167 (LQPPWTTVF; listed as Homo sapiens) [compound 167]”, the “Peptide Presentation on cancer entities” value is “GC, MEL, NSCLCadeno, NSCLCsquam”.

Turning to “144 (LFDHGGTVFF; listed as Homo sapiens) [compound 144]”, the “Peptide Presentation on cancer entities” value is given as “GBM”.

Consider “177 (KYLITTFSL; listed as Homo sapiens) [compound 177]”, for which the “Peptide Presentation on cancer entities” value is given as “NSCLCadeno”.

Regarding “104 (GYGLTRVQPF; listed as Homo sapiens) [compound 104]”, the “Peptide Presentation on cancer entities” value was “NSCLCadeno”.

Regarding “205 (ISWEVVHTVF; listed as Homo sapiens) [compound 205]”, the “Peptide Presentation on cancer entities” value was “PACA”.

In the case of “4 (MVLQPQPQLF; listed as Homo sapiens) [compound 4]”, the “Peptide Presentation on cancer entities” value was “NSCLCadeno”.

In the case of “186 (RRVTWNVLF; listed as Homo sapiens) [compound 186]”, the “Peptide Presentation on cancer entities” value is recorded as “NSCLCsquam”.

For the substance “380 (FYIRRLPMF; listed as Homo sapiens) [compound 380]”, the “Peptide Presentation on cancer entities” value is recorded as “NHL, NSCLCadeno, NSCLCsquam, OC, OSCAR, RCC”.

As to “280 (TIYSLEMKMSF; listed as Homo sapiens) [compound 280]”, the “Peptide Presentation on cancer entities” value is recorded as “NSCLCother, NSCLCsquam”.

Regarding “230 (RWLSKPSLL; listed as Homo sapiens) [compound 230]”, the “Peptide Presentation on cancer entities” value is reported as “NHL”.

Regarding “253 (QYYCLLLIF; listed as Homo sapiens) [compound 253]”, the “Peptide Presentation on cancer entities” value is “NSCLCadeno, NSCLCsquam”.

On to “237 (RQGLTVLTW; listed as Homo sapiens) [compound 237]”, for which the “Peptide Presentation on cancer entities” value was “NSCLCadeno”.

In the case of “172 (RYFIAAEKILW; listed as Homo sapiens) [compound 172]”, the “Peptide Presentation on cancer entities” value is given as “HNSCC”.

“242 (SYTPLLSYI; listed as Homo sapiens) [compound 242]”: the “Peptide Presentation on cancer entities” value was “MEL”.

As for “346 (TYIDFVPYI; listed as Homo sapiens) [compound 346]”, the “Peptide Presentation on cancer entities” value is “GBC, GC, NSCLCadeno, OC, RCC, UEC”.

“370 (TQMDVKLVF; listed as Homo sapiens) [compound 370]”: the “Peptide Presentation on cancer entities” value was “GBC, GC, HCC, NHL, NSCLCadeno, NSCLCsquam, OSCAR, UBC, UEC”.

As to “126 (YSLLDPAQF; listed as Homo sapiens) [compound 126]”, the “Peptide Presentation on cancer entities” value is reported as “CRC, NSCLCadeno, PACA, PRCA, UEC”.

Consider “64 (QFSHVPLNNF; listed as Homo sapiens) [compound 64]”, for which the “Peptide Presentation on cancer entities” value is on record as “NSCLCsquam”.

The values are drawn from patent US12060400B2, “Peptides for use in immunotherapy against cancers” (Immatics Biotechnologies GmbH, priority 2018, dated 2024).
